The record followed here is patent US20140128472A1, “TREATMENT AND PREVENTION OF DISEASES RELATED TO OXIDATIVE STRESS” (UNIVERSITY OF PÉCS, priority 2011, published 2014).

A short description of data set [1]: Tyrosine content of the vascular wall after oral tyrosine isomer supplementation of rats (HPLC). In kind it is in vivo, Sprague-Dawley rats. Conditions: 4th week; 1.76 mg/die per os; relative to Phe levels.
Data set [2] deals with mouse endothelial cells (ECs) from endothelioma. Briefly: Incorporation of tyrosine isoforms into cellular proteins of mouse endothelioma cells (HPLC). In kind it is cell-based. The following applies: 7 days.

“Also recorded” adds a separate entry of the source.

For the compound `N[C@@H](Cc1ccc(O)cc1)C(=O)O` [p-Tyr, Para-L-tyrosine], the “Vascular o-Tyr level compared to control group” value in data set [1] was “did not alter o-Tyr levels”.

For `N[C@@H](Cc1ccccc1O)C(=O)O` [o-Tyr, Ortho-L-tyrosine], in data set [2] (400 μmol/l o- and 400 μmol/l p-Tyr), the “o-Tyr content of cellular proteins compared to p-Tyr or control ECs” value is “higher o-Tyr content”. The “Vascular o-Tyr level compared to control group” value in data set [1] is recorded as “significantly higher o-Tyr level; also recorded: significantly increased the o-Tyr content”.

For `N[C@@H](Cc1cccc(O)c1)C(=O)O` [m-Tyr, Meta-L-tyrosine], the “Relative m-Tyr content of cellular proteins compared to p-Tyr supplemented or control cells” value in data set [2] (400 μmol/l m- and 400 μmol/l p-Tyr) is reported as “higher relative content of m-Tyr”.
